Data from paper PMC5015840.

What was measured:
[1] = molecular target: T1, Rice dwarf virus (RDV) P2 protein, yeast two-hybrid fusion (Rice dwarf virus) (UniProt Q18MZ3); test: two-hybrid; yeast; selection medium SD-L-W-H-Ade with or without 50 μM IAA (S2C, S3, S6B Figs; the medium of S2D Fig is not told)
T1 sequence: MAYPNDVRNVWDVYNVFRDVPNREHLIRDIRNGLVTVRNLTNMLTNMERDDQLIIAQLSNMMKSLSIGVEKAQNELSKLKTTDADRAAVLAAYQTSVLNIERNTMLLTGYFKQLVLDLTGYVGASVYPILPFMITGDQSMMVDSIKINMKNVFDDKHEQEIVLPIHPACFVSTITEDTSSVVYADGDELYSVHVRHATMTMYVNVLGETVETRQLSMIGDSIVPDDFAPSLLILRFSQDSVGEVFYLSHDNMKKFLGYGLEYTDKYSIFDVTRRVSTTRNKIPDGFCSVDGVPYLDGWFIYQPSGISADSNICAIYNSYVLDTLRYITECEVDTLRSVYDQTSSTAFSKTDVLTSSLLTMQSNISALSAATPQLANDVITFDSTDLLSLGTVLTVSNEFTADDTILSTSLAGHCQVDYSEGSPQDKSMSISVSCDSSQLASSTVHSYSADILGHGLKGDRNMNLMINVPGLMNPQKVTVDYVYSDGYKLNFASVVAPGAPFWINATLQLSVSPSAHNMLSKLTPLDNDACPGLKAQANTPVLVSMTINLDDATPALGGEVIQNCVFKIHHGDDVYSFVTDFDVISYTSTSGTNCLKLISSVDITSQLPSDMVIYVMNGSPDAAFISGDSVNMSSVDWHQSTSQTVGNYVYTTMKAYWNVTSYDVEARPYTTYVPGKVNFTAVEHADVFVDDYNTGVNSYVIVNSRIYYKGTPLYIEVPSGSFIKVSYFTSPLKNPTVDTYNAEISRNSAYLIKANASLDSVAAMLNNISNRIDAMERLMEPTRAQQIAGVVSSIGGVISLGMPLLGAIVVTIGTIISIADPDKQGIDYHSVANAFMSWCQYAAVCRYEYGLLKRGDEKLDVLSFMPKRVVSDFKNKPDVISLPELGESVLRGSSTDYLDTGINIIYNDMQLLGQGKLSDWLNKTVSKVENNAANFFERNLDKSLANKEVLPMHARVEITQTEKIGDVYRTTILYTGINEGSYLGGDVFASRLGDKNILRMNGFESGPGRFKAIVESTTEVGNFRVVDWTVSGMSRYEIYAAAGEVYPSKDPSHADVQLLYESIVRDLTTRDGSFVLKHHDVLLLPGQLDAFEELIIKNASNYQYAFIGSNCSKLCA

[2] = molecular target: T1, Rice dwarf virus (RDV) P2 protein, yeast two-hybrid fusion (Rice dwarf virus); test: two-hybrid; yeast AH109 co-transformed with bait and prey; growth on SD-Leu/-Trp/-His/-Ade
[3] = molecular target: OsIAA10 of the MST assays (rice); test: MST; as a10 with 2.5 μM MBP-P2 (1–786) added; both purified
MBP-OsIAA10 (rice) = test: pull-down; the same competition pull-down as a7, for the blocker MBP-P2 (1–786) and MBP-OsIAA10 (both purified from E. coli); both purified
GST-OsIAA10 (rice) = test: pull-down; competitive pull-down: 3 μg GST-OsIAA10 with 0, 3, 6 or 12 μg GST-P2(1–786) or 6 μg GST, incubated with immobilized MBP-OsTIR1 (6 μg), 4°C, 1 h; detected with anti-GST; both purified
[4] = molecular target: FLAG-OsIAA10 overexpressed in transgenic rice (rice); test: co-IP; RDV-infected FLAG-OsIAA10 overexpressing transgenic rice; IP buffer 50 mM Tris-HCl pH7.5, 150 mM NaCl, 0.1% NP-40, 5 mM DTT, 50 μM MG132, 4°C
[5] = molecular target: FLAG-OsIAA10 transiently expressed in N. benthamiana (rice); test: co-IP; FLAG-OsIAA10 and HA-P2 transiently overexpressed in N. benthamiana leaves; IP buffer 50 mM Tris-HCl pH7.5, 150 mM NaCl, 0.1% NP-40, 5 mM DTT, 50 μM MG132, 4°C

OsIAA10P116L, yeast two-hybrid fusion (rice)
binding [1]: binds

OsIAA10 domain II (aa 91–141), yeast two-hybrid fusion (rice) (domain or fragment)
binding [2]: binds

OsIAA1 (rice)
binding [2]: no binding

B1: MBP-P2 (1–786) (domain or fragment, UniProt Q18MZ3 1-786)
chain: MAYPNDVRNVWDVYNVFRDVPNREHLIRDIRNGLVTVRNLTNMLTNMERDDQLIIAQLSNMMKSLSIGVEKAQNELSKLKTTDADRAAVLAAYQTSVLNIERNTMLLTGYFKQLVLDLTGYVGASVYPILPFMITGDQSMMVDSIKINMKNVFDDKHEQEIVLPIHPACFVSTITEDTSSVVYADGDELYSVHVRHATMTMYVNVLGETVETRQLSMIGDSIVPDDFAPSLLILRFSQDSVGEVFYLSHDNMKKFLGYGLEYTDKYSIFDVTRRVSTTRNKIPDGFCSVDGVPYLDGWFIYQPSGISADSNICAIYNSYVLDTLRYITECEVDTLRSVYDQTSSTAFSKTDVLTSSLLTMQSNISALSAATPQLANDVITFDSTDLLSLGTVLTVSNEFTADDTILSTSLAGHCQVDYSEGSPQDKSMSISVSCDSSQLASSTVHSYSADILGHGLKGDRNMNLMINVPGLMNPQKVTVDYVYSDGYKLNFASVVAPGAPFWINATLQLSVSPSAHNMLSKLTPLDNDACPGLKAQANTPVLVSMTINLDDATPALGGEVIQNCVFKIHHGDDVYSFVTDFDVISYTSTSGTNCLKLISSVDITSQLPSDMVIYVMNGSPDAAFISGDSVNMSSVDWHQSTSQTVGNYVYTTMKAYWNVTSYDVEARPYTTYVPGKVNFTAVEHADVFVDDYNTGVNSYVIVNSRIYYKGTPLYIEVPSGSFIKVSYFTSPLKNPTVDTYNAEISRNSAYLIKANASLDSVAAMLNNISNRIDAMERLMEPTRAQQ
binding [3]: binds
binding (MBP-OsIAA10 (rice)): binds

B2: GST-P2 (1–786) (domain or fragment, UniProt Q18MZ3 1-786)
chain: MAYPNDVRNVWDVYNVFRDVPNREHLIRDIRNGLVTVRNLTNMLTNMERDDQLIIAQLSNMMKSLSIGVEKAQNELSKLKTTDADRAAVLAAYQTSVLNIERNTMLLTGYFKQLVLDLTGYVGASVYPILPFMITGDQSMMVDSIKINMKNVFDDKHEQEIVLPIHPACFVSTITEDTSSVVYADGDELYSVHVRHATMTMYVNVLGETVETRQLSMIGDSIVPDDFAPSLLILRFSQDSVGEVFYLSHDNMKKFLGYGLEYTDKYSIFDVTRRVSTTRNKIPDGFCSVDGVPYLDGWFIYQPSGISADSNICAIYNSYVLDTLRYITECEVDTLRSVYDQTSSTAFSKTDVLTSSLLTMQSNISALSAATPQLANDVITFDSTDLLSLGTVLTVSNEFTADDTILSTSLAGHCQVDYSEGSPQDKSMSISVSCDSSQLASSTVHSYSADILGHGLKGDRNMNLMINVPGLMNPQKVTVDYVYSDGYKLNFASVVAPGAPFWINATLQLSVSPSAHNMLSKLTPLDNDACPGLKAQANTPVLVSMTINLDDATPALGGEVIQNCVFKIHHGDDVYSFVTDFDVISYTSTSGTNCLKLISSVDITSQLPSDMVIYVMNGSPDAAFISGDSVNMSSVDWHQSTSQTVGNYVYTTMKAYWNVTSYDVEARPYTTYVPGKVNFTAVEHADVFVDDYNTGVNSYVIVNSRIYYKGTPLYIEVPSGSFIKVSYFTSPLKNPTVDTYNAEISRNSAYLIKANASLDSVAAMLNNISNRIDAMERLMEPTRAQQ
binding (GST-OsIAA10 (rice)): binds

B3: RDV P2 in RDV-infected rice plants (protein, UniProt Q18MZ3 1-1116)
chain: MAYPNDVRNVWDVYNVFRDVPNREHLIRDIRNGLVTVRNLTNMLTNMERDDQLIIAQLSNMMKSLSIGVEKAQNELSKLKTTDADRAAVLAAYQTSVLNIERNTMLLTGYFKQLVLDLTGYVGASVYPILPFMITGDQSMMVDSIKINMKNVFDDKHEQEIVLPIHPACFVSTITEDTSSVVYADGDELYSVHVRHATMTMYVNVLGETVETRQLSMIGDSIVPDDFAPSLLILRFSQDSVGEVFYLSHDNMKKFLGYGLEYTDKYSIFDVTRRVSTTRNKIPDGFCSVDGVPYLDGWFIYQPSGISADSNICAIYNSYVLDTLRYITECEVDTLRSVYDQTSSTAFSKTDVLTSSLLTMQSNISALSAATPQLANDVITFDSTDLLSLGTVLTVSNEFTADDTILSTSLAGHCQVDYSEGSPQDKSMSISVSCDSSQLASSTVHSYSADILGHGLKGDRNMNLMINVPGLMNPQKVTVDYVYSDGYKLNFASVVAPGAPFWINATLQLSVSPSAHNMLSKLTPLDNDACPGLKAQANTPVLVSMTINLDDATPALGGEVIQNCVFKIHHGDDVYSFVTDFDVISYTSTSGTNCLKLISSVDITSQLPSDMVIYVMNGSPDAAFISGDSVNMSSVDWHQSTSQTVGNYVYTTMKAYWNVTSYDVEARPYTTYVPGKVNFTAVEHADVFVDDYNTGVNSYVIVNSRIYYKGTPLYIEVPSGSFIKVSYFTSPLKNPTVDTYNAEISRNSAYLIKANASLDSVAAMLNNISNRIDAMERLMEPTRAQQIAGVVSSIGGVISLGMPLLGAIVVTIGTIISIADPDKQGIDYHSVANAFMSWCQYAAVCRYEYGLLKRGDEKLDVLSFMPKRVVSDFKNKPDVISLPELGESVLRGSSTDYLDTGINIIYNDMQLLGQGKLSDWLNKTVSKVENNAANFFERNLDKSLANKEVLPMHARVEITQTEKIGDVYRTTILYTGINEGSYLGGDVFASRLGDKNILRMNGFESGPGRFKAIVESTTEVGNFRVVDWTVSGMSRYEIYAAAGEVYPSKDPSHADVQLLYESIVRDLTTRDGSFVLKHHDVLLLPGQLDAFEELIIKNASNYQYAFIGSNCSKLCA
binding [4]: binds

B4: HA-P2 transiently expressed in N. benthamiana (protein, UniProt Q18MZ3 1-1116)
chain: MAYPNDVRNVWDVYNVFRDVPNREHLIRDIRNGLVTVRNLTNMLTNMERDDQLIIAQLSNMMKSLSIGVEKAQNELSKLKTTDADRAAVLAAYQTSVLNIERNTMLLTGYFKQLVLDLTGYVGASVYPILPFMITGDQSMMVDSIKINMKNVFDDKHEQEIVLPIHPACFVSTITEDTSSVVYADGDELYSVHVRHATMTMYVNVLGETVETRQLSMIGDSIVPDDFAPSLLILRFSQDSVGEVFYLSHDNMKKFLGYGLEYTDKYSIFDVTRRVSTTRNKIPDGFCSVDGVPYLDGWFIYQPSGISADSNICAIYNSYVLDTLRYITECEVDTLRSVYDQTSSTAFSKTDVLTSSLLTMQSNISALSAATPQLANDVITFDSTDLLSLGTVLTVSNEFTADDTILSTSLAGHCQVDYSEGSPQDKSMSISVSCDSSQLASSTVHSYSADILGHGLKGDRNMNLMINVPGLMNPQKVTVDYVYSDGYKLNFASVVAPGAPFWINATLQLSVSPSAHNMLSKLTPLDNDACPGLKAQANTPVLVSMTINLDDATPALGGEVIQNCVFKIHHGDDVYSFVTDFDVISYTSTSGTNCLKLISSVDITSQLPSDMVIYVMNGSPDAAFISGDSVNMSSVDWHQSTSQTVGNYVYTTMKAYWNVTSYDVEARPYTTYVPGKVNFTAVEHADVFVDDYNTGVNSYVIVNSRIYYKGTPLYIEVPSGSFIKVSYFTSPLKNPTVDTYNAEISRNSAYLIKANASLDSVAAMLNNISNRIDAMERLMEPTRAQQIAGVVSSIGGVISLGMPLLGAIVVTIGTIISIADPDKQGIDYHSVANAFMSWCQYAAVCRYEYGLLKRGDEKLDVLSFMPKRVVSDFKNKPDVISLPELGESVLRGSSTDYLDTGINIIYNDMQLLGQGKLSDWLNKTVSKVENNAANFFERNLDKSLANKEVLPMHARVEITQTEKIGDVYRTTILYTGINEGSYLGGDVFASRLGDKNILRMNGFESGPGRFKAIVESTTEVGNFRVVDWTVSGMSRYEIYAAAGEVYPSKDPSHADVQLLYESIVRDLTTRDGSFVLKHHDVLLLPGQLDAFEELIIKNASNYQYAFIGSNCSKLCA
binding [5]: binds

Results are given in words; binding and its absence hold for the method and conditions named. A result given as binding can be weak or reduced; the word gives no strength. For some assays here: Where a sequence is shown, tags or fusion partners need not be part of it. For some assays here: In cells and extracts the contact can be indirect.
